Literature values in patent publication US8765150B2, “Riluzole aqueous suspensions” (Italfarmaco SpA, priority 2009, dated 2014).

How the values were obtained:
[1] = pH 1.2
[2] = under acidic conditions (pH 1.2)

Nc1nc2ccc(OC(F)(F)F)cc2s1 [Riluzole, 6-(trifluoromethoxy)benzothiazol-2-amine]
solubility [1]: about 12 mg/mL
chemical stability [2]: decreases dramatically
